Results are given in words; binding and its absence hold for the method and conditions named. Some binding calls cover weakened binding; strength is not graded here.
Tests used:
[1] = molecular target: Anterior Gradient 2 (AGR2) (UniProt O95994); test: screening of monoclonal phage and soluble scFv from crude bacterial lysates
[2] = molecular target: Anterior Gradient 2 (AGR2) (UniProt O95994); test: ELISA on coated plates (FIG. 6A)

Amino acid sequences for entries named in this document (tags omitted). Residues count along the entry.
UniProt O95994, residues 21-175: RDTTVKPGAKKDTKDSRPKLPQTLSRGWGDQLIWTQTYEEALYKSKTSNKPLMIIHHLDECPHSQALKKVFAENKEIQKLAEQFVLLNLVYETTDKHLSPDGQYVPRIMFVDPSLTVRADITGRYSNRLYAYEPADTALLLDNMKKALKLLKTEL

Binder | binding [1] | binding [2]
anti-AGR2 scFv clone 19 (scFv) scFv: EVQLLESGGGLVQPGGSLRLSCAASGFTFSSYAMSWVRQAPGKGLEWVSAIASQGVATGYADSVKGRFTISRDNSKNTLYLQMNSLRAEDTAVYYCAKLDQHFDYWGQGTLVTVSSGGGGSGGGGSGGGGSTDIQMTQSPSSLSASVGDRVTITCRASQSISSYLNWYQQKPGKAPKLLIYQASRLQSGVPSRFSGSGSGTDFTLTISSLQPEDFATYYCQQARRLPLTFGQGTKVEIK | binds | binds
anti-AGR2 scFv clone 26 (scFv) scFv: EVQLLESGGGLVQPGGSLRLSCAASGFTFSSYAMSWVRQAPGKGLEWVSSIQGQGRITRYADSVKGRFTISRDNSKNTLYLQMNSLRAEDTAVYYCAKRAIMFDYWGQGTLVTVSSGGGGSGGGGSGGGGSTDIQMTQSPSSLSASVGDRVTITCRASQSISSYLNWYQQKPGKAPKLLIYHASLLQSGVPSRFSGSGSGTDFTLTISSLQPEDFATYYCQQARYWPLTFGQGTKVEIK | binds | binds
anti-AGR2 scFv clone 1 (scFv) scFv: EVQLLESGGGLVQPGGSLRLSCAASGFTFSSYAMSWVRQAPGKGLEWVSGIQSTGALTAYADSVKGRFTISRDNSKNTLYLQMNSLRAEDTAVYYCAKLAQTFDYWGQGTLVTVSSGGGGSGGGGSGGGGSTDIQMTQSPSSLSASVGDRVTITCRASQSISSYLNWYQQKPGKAPKLLIYRASSLQSGVPSRFSGSGSGTDFTLTISSLQPEDFATYYCQQTRRLPVTFGQGTKVEIK | binds | binds
